This is an account of results in PubChem BioAssay AID662 (National Center for Advancing Translational Sciences (NCATS), 2007).

Each structure is given as a SMILES string. The list shows a part of the results. The main result of the screen is listed elsewhere. These columns were measured beside it and carry no call. The list favours compounds with an active or inconclusive main result. Potencies come from curve fits of mixed quality, noted in brackets.

A short description of the test: Cell signaling CRE-BLA (Fsk stim). The conditions noted are these: CHO CRE-bla reporter (cAMP response element driving beta-lactamase), forskolin EC10, beta-lactamase ratio; measured here: 460 nm blue channel. The essentials: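 Titrated compounds plus EC10 NKH 477 on CHO CRE-bla cells, 3 h, 37 °C. CCF4, 2 h RT. Ratio 460/530 nm → AC50.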
For `CC(C)OCC(O)CSc1ccccn1` (stereo not drawn), the AC50 is 5.01 µM [falling, partial curve].
With `Cc1ccc(N2CCN(c3ccc(C)cc3)C(CC(=O)O)C2=O)cc1` (stereo not drawn) the figure was 12.6 µM [rising, partial curve]; with `COc1ccc(OC)c(S(=O)(=O)Nc2cccc(C(C)=O)c2)c1`, 3.16 µM [rising, single point].
With `CCOC(=O)C1=C(C)OC(N)=C(C(=O)OCC)C1c1cccnc1` (stereo not drawn) the figure was 12.6 µM [rising, single point].
As for `COC(=O)C1=C(C)NC2=C(C(=O)CCC2)C1c1cccc(C)n1` (stereo not drawn), the figure is 12.6 µM [rising, partial curve]; as for `Cc1ccc(/C=N/n2c(C)nnc2C)s1`, 0.2 µM [falling, full curve, poor fit]; as for `COC(=O)N1CCC2(CCCN(C(c3ccccc3)c3ccccc3)C2)CC1`, 15.8 µM [rising, partial curve].
As for `CC(=O)NCCNc1ncnc2ccc(-c3ccc4c(c3)OCO4)cc12`, the AC50 was 12.6 µM [rising, partial curve].
With `CC(=O)c1cccc(NC(=O)c2c(F)c(F)c(F)c(F)c2F)c1` the figure was 0.01 µM [rising, full curve].
For the compound `CC1(C)Cc2c(c(N3CCOCC3)nc3sc(-c4ccc(C(=O)O)o4)c(N)c23)CO1`, the AC50 is 12.6 µM [rising, partial curve].
With `COc1cc2c(cc1OC)C(=O)N(C)CC2` the figure was 7.94 µM [rising, partial curve]; with `Cc1ccc(C)c(Cn2cnc3c(cnn3C(C)(C)C)c2=O)c1`, 25.1 µM [rising, single point].
As for `CN1CCN(S(=O)(=O)c2cccc(C(=O)N(c3ccccn3)C3CCCCC3)c2)CC1`, the figure is 3.98 µM [falling, partial curve]; as for `CCOC(=O)C1CCN(c2ncnc3c2[nH]c2cccc(OC)c23)CC1`, 12.6 µM [rising, single point]; as for `CN(C)c1nc(Oc2ccc(/C=N/O)cc2)nc(N(C)C)n1`, 7.94 µM [rising, partial curve].
As for `Oc1c(CN2CCOCC2)cc(COCc2ccccc2)c2cccnc12`, the figure is 0.316 µM [rising, full curve]; as for `Cc1ccc(S(=O)(=O)O[C@H]2C[C@@H](C(C)(C)C)CC[C@@H]2c2ccccc2)cc1`, 3.16 µM [rising, single point].
On to `Cc1csc(NC(=O)c2cc3c(s2)-c2ccccc2OC3)n1`, for which the AC50 was 15.8 µM [rising, partial curve].
With `COc1ccc(CCn2c(-c3ccco3)nc3nc4ccccc4nc32)cc1` the figure was 10 µM [rising, partial curve]; with `Cc1cc(C)n2c(SCc3cccs3)nnc2n1`, 15.8 µM [rising, single point]; with `CCn1c(=O)cc(SCC(=O)N2CCN(C(=O)c3ccco3)CC2)c2ccccc21`, 2 µM [falling, partial curve, poor fit].
Take `COc1ccc(-c2nn3c(-c4ccccc4)nnc3s2)cc1OC`: the AC50 was 5.01 µM [rising, partial curve].
For the compound `COc1ccc(C)cc1NC(=O)CSc1nnc(-c2ccco2)n1Cc1ccco1`, the AC50 is 10 µM [rising, partial curve].
As for `O=C(CN1CCOCC1)Nc1ccc(Oc2ccc(NC(=O)CN3CCOCC3)cc2)cc1`, the figure is 2 µM [rising, partial curve]; as for `Clc1ccc(C2=Nn3c(nnc3-c3n[nH]c4c3CCC4)SC2)cc1Cl`, 0.501 µM [rising, full curve].
As for `CSc1nsc(SCC(=O)NC2CCCCC2)n1`, the figure is 1 µM [falling, full curve, poor fit]; as for `N#Cc1c(N)nc2c(c1-c1ccc3c(c1)OCO3)CCCCCC2`, 5.01 µM [rising, partial curve]; as for `C/C(=N\O)C(=O)NCc1ccncc1`, 25.1 µM [falling, single point].
On to `Cc1ccc(N=c2oc3cc(O)ccc3cc2C(N)=O)cc1`, for which the AC50 was 12.6 µM [rising, partial curve].
With `Cc1c(C(=O)N2CCN(c3ccc(C(F)(F)F)cn3)CC2)oc2ccccc12` the figure was 0.0794 µM [falling, full curve]; with `CC1CC(C)CN(c2ncnc3c2cnn3Cc2ccc(Cl)cc2)C1` (stereo not drawn), 10 µM [rising, single point].
As for `Cc1nc(C)c(C(=O)NCc2ccccc2Cl)o1`, the figure is 5.01 µM [falling, single point].
As for `CC1CCCN(Cc2nc3c(c(=O)n(C)c(=O)n3C)n2CC(=O)c2ccccc2)C1` (stereo not drawn), the figure is 12.6 µM [rising, single point].
For `COc1cccc(C2CC(=O)Nc3cc4c(cc32)OCCO4)c1OC(C)C` (stereo not drawn), the AC50 is 12.6 µM [rising, single point].
As for `CCCCC[C@H](O)C=C[C@H]1[C@H](O)CC(=O)[C@H]1CCCCCCC(=O)O`, the figure is 0.02 µM [rising, full curve, poor fit].
As for `O=C(O)C1C2CCC(O2)C1C(=O)Nc1cccc(F)c1` (stereo not drawn), the figure is 10 µM [rising, partial curve]; as for `COC(=O)[C@H](CC(C)C)NC(=O)NC1CCCc2ccccc21` (stereo partly drawn), 10 µM [falling, partial curve]; as for `COc1cc(C2Nc3ccc4ncccc4c3C3=C2C(=O)CCC3)cc(OC)c1O` (stereo not drawn), 20 µM [rising, single point].
For the compound `COc1ccc2c(=O)c(C(=O)NCCc3ccc(OC)c(OC)c3)c[nH]c2c1`, the AC50 was 10 µM [rising, partial curve].
As for `Cc1nc2sc3c(c2c2nc(-c4ccco4)nn12)CC(C)(C)OC3`, the figure is 10 µM [rising, partial curve].
With `COCC(=O)Nc1cc(C)c2c(=O)oc3ccccc3c2n1` the figure was 10 µM [rising, partial curve]; with `N#Cc1cccc(-c2cc(NCc3cccs3)ncn2)c1`, 3.16 µM [rising, full curve].
With `COc1cccc(-n2nnnc2SCC(=O)c2ccc(NC(C)=O)cc2)c1` the figure was 25.1 µM [falling, single point]; with `CCc1c(C)nc2ncnn2c1NCCc1ccc(OC)c(OC)c1`, 25.1 µM [rising, single point].
Consider `O=C(On1c(-c2ccccc2)nc2ccccc2c1=O)c1ccco1`, for which the concentration at half-maximal activity (AC50) was 10 µM [falling, single point].
With `CC[C@@H](CS(=O)(=O)O)[N+](=O)[O-]` the figure was 0.000794 µM [falling, full curve, poor fit].
Turning to `Cc1nnc(SCC(=O)NCc2ccco2)[nH]c1=O`, the AC50 was 0.316 µM [falling, full curve].
With `COc1cc2c(cc1OC)-c1cc(NC3CCCCCCC3)nc(=O)n1CC2` the figure was 0.631 µM [rising, full curve].
As for `Cc1nn(CCc2nc(-c3ccco3)cs2)c2[nH]c(=O)cc(C(F)(F)F)c12`, the figure is 0.501 µM [rising, partial curve].
For the compound `N#CCCn1c(=O)c(CCc2ccccc2)nc2cnc(N3CCOCC3)nc21`, the AC50 is 6.31 µM [rising, partial curve].
With `COc1ccc(CNc2ncncc2-c2ccc(N(C)C)cc2)c(OC)c1` the figure was 10 µM [rising, partial curve].
As for `CCOC(=O)CN(C(=O)CSc1nnc2c(n1)[nH]c1ccccc12)c1ccccc1`, the figure is 10 µM [rising, partial curve]; as for `O=c1c2ccccc2nc(SCc2cn3ccsc3n2)n1-c1ccccc1F`, 1 µM [rising, partial curve].
As for `O=C(CSc1nnc2scc(-c3ccccc3)n12)Nc1ccc2c(c1)OCCO2`, the figure is 0.631 µM [rising, full curve, poor fit]; as for `CNC(=O)c1ccc(-c2sc3nc(N4CCOCC4)c4c(c3c2N)CCCC4)o1`, 3.16 µM [rising, partial curve]; as for `O=C(c1csnn1)N1CCC2(CC1)CN(c1ccccn1)C2`, 25.1 µM [rising, single point].
In the case of `Fc1ccc(-c2noc(C3CCN(Cc4cccnc4)CC3)n2)cc1`, the AC50 was 0.126 µM [falling, single point].
As for `Cc1c(Cl)cccc1NC(=O)CSc1nnc(CCNC(=O)OC(C)(C)C)o1`, the figure is 3.98 µM [falling, full curve, poor fit].
With `COc1ccc(-c2cc(C(F)F)n3ncc(C(=O)NCC4CCCO4)c3n2)cc1` (stereo not drawn) the figure was 5.01 µM [rising, partial curve].
With `Cc1ccccc1S(=O)(=O)Cc1ccc(C(=O)N2CCN(c3cccc(C)c3C)CC2)o1` the figure was 12.6 µM [falling, single point]; with `CCOC(=O)c1c(C)oc(NC(=O)COc2ccc(Cl)cc2C)c1C#N`, 25.1 µM [rising, single point]; with `COc1ccc(-c2cc(C(=O)N3CCN(C(c4ccccc4)c4ccccc4)CC3)no2)cc1`, 25.1 µM [falling, single point].
In the case of `Cc1noc(C)c1CSc1nnc2scc(-c3ccc(Cl)cc3)n12`, the AC50 is 10 µM [rising, partial curve].
As for `Cc1cc(C)c(S(=O)(=O)Nc2cccc3nsnc23)c(C)c1`, the figure is 6.31 µM [rising, partial curve]; as for `COc1ccccc1CN1C(=O)[C@@H]2C(CC(N)=O)NC3(C(=O)Nc4c3ccc(Cl)c4C)[C@@H]2C1=O` (stereo partly drawn), 5.01 µM [falling, partial curve].
With `COc1ccc2cccc(N3CCN(CCNC(=O)c4ccc(F)cc4)CC3)c2c1` the figure was 25.1 µM [falling, partial curve, poor fit]; with `O=C1CCCN1CCCNc1ccc(S(=O)(=O)N2CCCCC2)cn1`, 0.0126 µM [falling, full curve, poor fit]; with `O=C(Nc1nnc(CC(=O)N2CCOCC2)s1)C1COc2ccccc2O1` (stereo not drawn), 12.6 µM [falling, single point].

As usually defined, the AC50 is the midpoint of the concentration-response curve, whichever way the signal moves.
